# According to patent publication US6916845B2, “Method for prevention and treatment of male and female sexual dysfunction” (priority 1999, dated 2005):
# Test system: iNOS mRNA
# Assay: iNOS mRNA expression in penis of castrated rat model by RT-PCR
# Assay type: in vivo
# Conditions: 3 months
# Description: Male Wistar rats(300-350 g)(n=24) randomly divide into 4 Groups; Group A for control; Group B for castrated and administration normal saline; Group C for castrated and oral administration Icariin […]; Group D for castrated and oral administration Icariin (5 mg/kg) for 3 months. After observe mating behavior, the animal was killed, the penis was excised rapidly, and cut into four parts. One of them used for immuohistochemical stain, the others was socked into RNAlater and stored in −70 condition. nNOS, eNOS, iNOS mRNA were semi-quantified by RT-PCR, β-actin as a controls. Specificity of RT-PCR products was confirmed by sequencing procedure, with-assay and between-assay variation was carried out respectively.
structure (smiles),measurement,setting,value
"COc1ccc(-c2oc3c(CC=C(C)C)c(O[C@@H]4O[C@H](CO)[C@@H](O)[C@H](O)[C@H]4O)cc(O)c3c(=O)c2O[C@@H]2O[C@@H](C)[C@H](O)[C@@H](O)[C@H]2O)cc1 [Icariin, icariin]",Mean conc./area (β-actin),"Group C, oral Icariin (mg/kg)",34.56
same,Mean conc./area (β-actin),"Group D, oral Icariin 5 mg/kg",31.36
